Results as given in patent publication US20060194847A1, “Novel 6-substituted 2-aminopyridine derivatives” (priority 2003, published 2006).
Structures can show the parent of a compound that is named as a salt. Some results were stated once for a whole list of compounds, not compound by compound. At least one compound was matched to its structure with a doubt left.

What was measured:
[1] = molecular target: T1, human form of induced nitric oxide synthase (Homo sapiens, UniProt P35228); test: Screen 2: nitrite accumulation in cytokine-induced DLD-1 cells (Griess reagent); format: cell-based; conditions: DLD-1 human colorectal carcinoma cells induced with gamma-IFN, TNF-alpha, IL-6, IL-1-beta; 5 hours with compound, 100 μM L-arginine; read-out: IC50, inhibition of nitrite accumulation
T1 construct: Nitric oxide synthase was induced in cells by addition of medium containing human recombinant gamma-IFN; endogenous in cells; host or cells: DLD-1 human colorectal carcinoma cells, cytokine-induced

iNOS enzyme = molecular target: T2, iNOS enzyme (Homo sapiens, UniProt P35228); test: Screen 1: recombinant human NOS enzyme inhibition, formation of L-[3H]citrulline from L-[3H]arginine; format: biochemical; conditions: recombinant human iNOS expressed in E. coli; 3 μM [3H]arginine; enzyme and inhibitor pre-incubated 60 min; read-out: IC50 against the iNOS enzyme
T2 construct: made in house; host or cells: E. coli

Compound Cc1cc(N)nc(CCSCC(N)C(=O)O)c1 [Example 2, S-[2-(6-Amino-4-methyl-2-pyridinyl)ethyl]-L-cysteine diacetate] has an IC50 [1] of less than 100 µM and an IC50 (iNOS enzyme) of less than 10 µM.

For Cc1cc(N)nc(CSCC(C)(N)C(=O)O)c1 [Example 4, S-[(6-Amino-4-methyl-2-pyridinyl)methyl]-2-methyl-L-cysteine diacetate], the IC50 [1] was less than 100 µM and the IC50 (iNOS enzyme) was less than 10 µM.

For Cc1cc(N)nc(COC[C@H](N)C(=O)O)c1 [Example 6, O-[(6-Amino-4-methyl-2-pyridinyl)methyl]-L-serine acetate], the IC50 [1] was less than 100 µM and the IC50 (iNOS enzyme) was less than 10 µM.

Work on Cc1cc(N)nc(COC[C@@H](N)C(=O)O)c1 [Example 7, O-[(6-Amino-4-methyl-2-pyridinyl)methyl]-D-serine] yielded an IC50 [1] of less than 100 µM and an IC50 (iNOS enzyme) of less than 10 µM.

Work on Cc1cc(N)nc(CN(C[C@H](N)C(=O)O)S(C)(=O)=O)c1 [Example 8, 3-[[(6-Amino-4-methyl-2-pyridinyl)methyl](methylsulfonyl)amino]-L-alanine dihydrochloride] yielded an IC50 [1] of less than 100 µM and an IC50 (iNOS enzyme) of less than 10 µM.

Compound Cc1cc(N)nc(CNC[C@H](N)C(=O)O)c1 [Example 9, 3-[[(6-Amino-4-methyl-2-pyridinyl)methyl]amino]-L-alanine trihydrochloride] has an IC50 [1] of less than 100 µM and an IC50 (iNOS enzyme) of less than 10 µM.

Cc1cc(N)nc(CS[C@@H](C)[C@H](N)C(=O)O)c1 [Example 10, (3S)-S-[(6-Amino-4-methyl-2-pyridinyl)methyl]-3-methyl-L-cysteine monoacetate] showed an IC50 (iNOS enzyme) of less than 10 µM.

“S-[(6-Amino-4-methyl-2-pyridinyl)methyl]-L-homocysteine diacetate [Example 3]” was tested, and the IC50 [1] was less than 100 µM and the IC50 (iNOS enzyme) was less than 10 µM.
